Measurements: the supplement of paper PMC8166895
Where a name gives a salt, the structure may show the parent alone. The list shows a part of the results. Most entries show no effect beyond the scatter of the controls.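 A single-replicate pilot screen of approved drugs and clinical or known-target compounds measured melting temperature via differential scanning fluorimetry. Top stabilizing hits raised the melting point by 2 °C or more; negative shifts indicate destabilization.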

What follows are compounds tested on SARS-CoV-2 main protease (Mpro, nsp5) (assay: thermal shift ΔTm of Mpro relative to plate average Tm; higher = stronger thermal stabilization of Mpro (binding)). Details: 10 µM; protein concentration 1 µM.
With `O=C(/C=C\n1cnc(-c2cc(C(F)(F)F)cc(C(F)(F)F)c2)n1)NNc1ccccn1` [Verdinexor (KPT-335)] the “thermal shift ΔTm of Mpro” value was 0.293 °C. `CCC1(c2ccc(N)cc2)CCC(=O)NC1=O` (stereo not given) [Aminoglutethimide] was tested, and the “thermal shift ΔTm of Mpro” value was -0.13 °C. For `CCN=C1N[C@@H]2[C@@H](O)[C@H](O)[C@@H](CO)O[C@@H]2S1` [Thiamet G], the “thermal shift ΔTm of Mpro” value was -0.0164 °C. `NC1(C(=O)O)CC(C(=O)O)C1` (stereo not given) was tested, and the “thermal shift ΔTm of Mpro” value was 0.0821 °C. `Nc1ncnc2c1c(I)cn2[C@@H]1O[C@H](CO)[C@@H](O)[C@H]1O` [5-Iodotubercidin] was tested, and the “thermal shift ΔTm of Mpro” value was -0.0771 °C. `Cc1ccc(CN(CC(O)COc2cccc3[nH]ccc23)C(C)(C)C)cc1` (stereo not given) was tested, and the “thermal shift ΔTm of Mpro” value was -0.0353 °C. `CCC(=O)Oc1ccc2c(c1)CCC1C2CCC2(C)C(OC(=O)CC)CCC12` (stereo not drawn) [17-Beta-Estradiol-3,17-Dipropionate] was tested, and the “thermal shift ΔTm of Mpro” value was 0.046 °C. For `CNc1cccc(CCOc2ccc3c(c2)CN(CC(F)(F)F)C(=O)[C@H](CC(=O)O)C3)n1`, the “thermal shift ΔTm of Mpro” value was -0.112 °C. `CCCCCCCCCCCCCCCC(=O)O[C@@H]1[C@@H](O)[C@@H](O)[C@@H]([C@H](NC(=O)[C@@H]2C[C@@H](CCC)CN2C)[C@H](C)Cl)O[C@@H]1SC` [Clindamycin palmitate HCl] was tested, and the “thermal shift ΔTm of Mpro” value was 0.063 °C. `Cc1cc(CC(=O)O)n(C)c1C(=O)c1ccc(Cl)cc1` [Zomepirac Sodium] was tested, and the “thermal shift ΔTm of Mpro” value was 0.337 °C. In the case of `O=C1CN(/N=C/C=C/c2ccc([N+](=O)[O-])o2)C(=O)N1` [Furagin], the “thermal shift ΔTm of Mpro” value was 0.0874 °C. `CC(=O)Nc1ncc([N+](=O)[O-])s1` [Nithiamide] was tested, and the “thermal shift ΔTm of Mpro” value was 0.00848 °C. For `OC[C@H]1O[C@@H](Oc2cc(O)cc(/C=C/c3ccc(O)cc3)c2)[C@H](O)[C@@H](O)[C@@H]1O` [Polydatin], the “thermal shift ΔTm of Mpro” value was 0.00895 °C. `O=c1c(O)c(-c2ccc(O)cc2O)oc2cc(O)cc(O)c12` [Morin Hydrate] was tested, and the “thermal shift ΔTm of Mpro” value was -0.0858 °C. For `COc1ccc(C2CNC(=O)C2)cc1OC1CCCC1` (stereo not given) [Rolipram], the “thermal shift ΔTm of Mpro” value was 0.184 °C. With `CC(=O)Nc1nc(C)c(-c2ccc(Cl)c(S(=O)(=O)NCCO)c2)s1` the “thermal shift ΔTm of Mpro” value was 0.464 °C. `Cc1cc(O)c(-c2ccc([C@@H](C)CN)cc2)c2c1[nH]c(=O)c1sccc12` [OTS514 hydrochloride] was tested, and the “thermal shift ΔTm of Mpro” value was 0.00971 °C. `[Na+].[Na+].[Na+].[O]=[V]([O-])([O-])[O-]` [Sodium orthovanadate] was tested, and the “thermal shift ΔTm of Mpro” value was 0.263 °C. For `Cc1c(Cl)cccc1S(=O)(=O)Nc1nc(CC(=O)N2CCN(C)CC2)cs1`, the “thermal shift ΔTm of Mpro” value was 0.0508 °C. In the case of `C[C@@H](Nc1cc(NS(=O)(=O)N2CCC2)nc(SCc2cccc(F)c2F)n1)[C@@H](O)CO`, the “thermal shift ΔTm of Mpro” value was 0.02 °C. For `CC(C)c1cc(Oc2c(Cl)cc(-n3nc(C#N)c(=O)[nH]c3=O)cc2Cl)n[nH]c1=O`, the “thermal shift ΔTm of Mpro” value was -0.124 °C. In the case of `O=[N+]([O-])c1cc([As](=O)(O)O)ccc1O` [Roxarsone], the “thermal shift ΔTm of Mpro” value was 0.154 °C. With `O=S(=O)(O)c1cc(O)ccc1O` [Ethamsylate] the “thermal shift ΔTm of Mpro” value was -0.386 °C. `O=C1C[C@@H](c2ccc(O)cc2)Oc2cc(O)cc(O)c21` [Naringenin] was tested, and the “thermal shift ΔTm of Mpro” value was 0.0106 °C. For `CCC(=O)O[C@]1(C(=O)CCl)[C@@H](C)C[C@H]2[C@@H]3CCC4=CC(=O)C=C[C@]4(C)[C@@]3(F)[C@@H](O)C[C@@]21C` [Clobetasol propionate], the “thermal shift ΔTm of Mpro” value was -0.117 °C. With `O=C1OCCN1/N=C/c1ccc([N+](=O)[O-])o1` [Furazolidone] the “thermal shift ΔTm of Mpro” value was 0.117 °C. In the case of `NC(=O)c1ccc([N+](=O)[O-])cc1Cl` [Alkomide], the “thermal shift ΔTm of Mpro” value was -0.0895 °C. For `CCOC(=O)[C@H](CCc1ccccc1)N[C@H]1CS[C@H](c2cccs2)CN(CC(=O)O)C1=O` [Temocapril HCl], the “thermal shift ΔTm of Mpro” value was 0.172 °C. In the case of `COc1ccc(F)c(F)c1C(=O)c1cnc(NC2CCN(S(C)(=O)=O)CC2)nc1N`, the “thermal shift ΔTm of Mpro” value was -0.0378 °C. With `CCc1nn(C)c(C(=O)NCc2ccc(C(C)(C)C)cc2)c1Cl` [Tebufenpyrad] the “thermal shift ΔTm of Mpro” value was 0.176 °C. For `Nc1nc2n[nH]nc2c(=O)[nH]1` [Azaguanine-8], the “thermal shift ΔTm of Mpro” value was -0.0732 °C. In the case of `C[C@H]1C[C@H]2[C@@H]3C[C@H](F)C4=CC(=O)C=C[C@]4(C)[C@@]3(F)[C@@H](O)C[C@]2(C)[C@@]1(O)C(=O)CO` [Diflorasone], the “thermal shift ΔTm of Mpro” value was 0.414 °C. `CN(C)c1nc(N(C)C)nc(N(C)C)n1` [Altretamine] was tested, and the “thermal shift ΔTm of Mpro” value was 0.177 °C. For `COc1cc2c(cc1-c1c(C)noc1C)ncc1[nH]c(=O)n([C@H](C)c3ccccn3)c12`, the “thermal shift ΔTm of Mpro” value was 0.156 °C. For `N[C@H](C(=O)O)[C@H](O)c1ccc(O)c(O)c1` [Droxidopa], the “thermal shift ΔTm of Mpro” value was -0.0176 °C. With `COc1nccc(-c2c(-c3ccc(F)cc3)ncn2C2CCNCC2)n1` the “thermal shift ΔTm of Mpro” value was -0.0134 °C. With `CCn1c(=O)c(-c2cc[nH]n2)cc2c(C)nc(N)nc21` [Voxtalisib] the “thermal shift ΔTm of Mpro” value was -0.0625 °C. In the case of `COc1cc2c(Oc3ccc4[nH]c(C)cc4c3F)ncnc2cc1OCCCN1CCCC1` [Cediranib (AZD2171)], the “thermal shift ΔTm of Mpro” value was -0.169 °C. `CC(C)(C)c1nc2c3cc[nH]c(=O)c3c3cc(F)ccc3c2[nH]1` [Pyridone 6] was tested, and the “thermal shift ΔTm of Mpro” value was -0.0439 °C. In the case of `CC(=O)O[C@]1(C(C)=O)CC[C@H]2[C@@H]3C[C@H](C)C4=CC(=O)CC[C@]4(C)[C@H]3CC[C@@]21C` [Medroxyprogesterone acetate], the “thermal shift ΔTm of Mpro” value was 0.0226 °C.
